Data published in PMC7662523, “Evaluation of Polyhedral Oligomeric Silsesquioxane Porphyrin Derivatives on Photodynamic Therapy” (Molecules, 2020).

Assay: Singlet oxygen quantum yield, indirect method with DMA as 1O2 probe in DMF
Assay type: physicochemical
Conditions: versus parent porphyrin (ATPP, TAPP or compound 6)
Description: The ^1O2 quantum yield (ΦΔ) of the POSSP compounds in dimethyl formamide (DMF) was indirectly determined using 9,10-dimethylanthracene (DMA) as ^1O2 probe. DMA reacts with ^1O2, undergoing a 1,4-cycloaddition that is detected as a decrease in the intensity of the DMA absorption band at 379 nm.
The ^1O2 quantum yields (ΦΔ) were determined through an indirect method using dimethylanthracence (DMA) as the singlet oxygen probe. Several solutions containing DMF were air saturated and prepared with DMA (50 μM) and the POSSPs or parent porphyrins (TPP, ATPP, TAPP and compound 6) (5 μM). These solutions were covered with aluminum foil to avoid any premature quenching. Quartz cuvettes (1 cm × 1 cm) were filled with 1 mL of the solution, placed in a spectrofluorophotometer (xenon lamp, Shimadzu RF-5301 PC) and irradiated at 515 nm for 600 s. The absorbance decay of DMA was monitored at 380 nm, which was corrected from light scattering by subtracting the spectra of POSSPs. The ΦΔ was calculated using Equation (2). Φ∆,S = Φ∆,R (mSample/mRerefence) (1−10^−absReference/1−10^−absSample)(2) where Φ∆,S is the singlet oxygen quantum yield of the sample and m is the slope of the plotted data relative to the area of the emission peak against the absorption of the reference.

Structure (SMILES)	increase in the ΦΔ value compared with the parent porphyrin [%]
NCCC[Si]12O[Si]3(CCCN)O[Si]4(CCCN)O[Si](CCCN)(O1)O[Si]1(CCCN)O[Si](CCCN)(O2)O[Si](CCCN)(O3)O[Si](CCCNC(=O)c2ccc(-c3c5nc(c(-c6ccccc6)c6ccc([nH]6)c(-c6ccccc6)c6nc(c(-c7ccccc7)c7ccc3[nH]7)C=C6)C=C5)cc2)(O4)O1 [POSSP 4]	9
CC(C)C[Si]12O[Si]3(CCCNC(=O)Nc4ccc(-c5c6nc(c(-c7ccccc7)c7ccc([nH]7)c(-c7ccccc7)c7nc(c(-c8ccccc8)c8ccc5[nH]8)C=C7)C=C6)cc4)O[Si]4(CC(C)C)O[Si](CC(C)C)(O1)O[Si]1(CC(C)C)O[Si](CC(C)C)(O2)O[Si](CC(C)C)(O3)O[Si](CC(C)C)(O4)O1 [POSSP 1]	82
O=C(NCCC[Si]12O[Si]3(c4ccccc4)O[Si]4(c5ccccc5)O[Si](c5ccccc5)(O1)O[Si]1(c5ccccc5)O[Si](c5ccccc5)(O2)O[Si](c2ccccc2)(O3)O[Si](c2ccccc2)(O4)O1)Nc1ccc(-c2c3nc(c(-c4ccccc4)c4ccc([nH]4)c(-c4ccccc4)c4nc(c(-c5ccccc5)c5ccc2[nH]5)C=C4)C=C3)cc1 [POSSP 2]	33
